Counter-ions that a name gives are not always drawn. ± gives the standard deviation of the averaged measurements. Most of the lowest values are listed elsewhere, so they are rarer here than in the full data.
The compounds below were run on E. coli TESEC Mtb Asd (assay: growth (OD600 after 10 h); higher = more growth (less inhibition)). Conditions: arabinose induction (level): High; compound 0.1 mM; raw OD600 reference: median of DMSO wells 0.331, cell-free background 0.041.
Protocol: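 TESEC E. coli strains in which the native enzyme is deleted and replaced by arabinose-inducible Mtb Asd, DapB, CysH or TrpD, each grown in its selective medium. Strains were screened against the Prestwick library at 0.1 mM and 1% DMSO in 384-well format at low and high arabinose induction. Growth is read as OD600 after 10 h in triplicate.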

| SMILES | growth |
| --- | --- |
| CN1[C@@H]2CC[C@H]1C[C@@H](OC(=O)C(O)c1ccccc1)C2 (mixture of isomers) [Homatropine hydrobromide (R,S)] | 0.402 ± 0.038 |

Same assay, conditions: arabinose induction (level): Low; compound 0.1 mM; raw OD600 reference: median of DMSO wells 0.417, cell-free background 0.041

| SMILES | growth |
| --- | --- |
| CN1[C@@H]2CC[C@H]1C[C@@H](OC(=O)C(O)c1ccccc1)C2 (mixture of isomers) [Homatropine hydrobromide (R,S)] | 0.421 ± 0.027 |
